Earlier results, collected in patent publication US20230304018A1, “COMPOSITIONS AND METHODS FOR ENHANCING WEIGHT LOSS” (The Children's Hospital of Philadelphia, priority 2017, published 2023).
For at least one compound, name, drawing or mass did not settle the structure.

Protein sequences, listed by entry. Tags and fused reporters are not part of them. Residues count along the entry.
UniProt P08581, 25-1390: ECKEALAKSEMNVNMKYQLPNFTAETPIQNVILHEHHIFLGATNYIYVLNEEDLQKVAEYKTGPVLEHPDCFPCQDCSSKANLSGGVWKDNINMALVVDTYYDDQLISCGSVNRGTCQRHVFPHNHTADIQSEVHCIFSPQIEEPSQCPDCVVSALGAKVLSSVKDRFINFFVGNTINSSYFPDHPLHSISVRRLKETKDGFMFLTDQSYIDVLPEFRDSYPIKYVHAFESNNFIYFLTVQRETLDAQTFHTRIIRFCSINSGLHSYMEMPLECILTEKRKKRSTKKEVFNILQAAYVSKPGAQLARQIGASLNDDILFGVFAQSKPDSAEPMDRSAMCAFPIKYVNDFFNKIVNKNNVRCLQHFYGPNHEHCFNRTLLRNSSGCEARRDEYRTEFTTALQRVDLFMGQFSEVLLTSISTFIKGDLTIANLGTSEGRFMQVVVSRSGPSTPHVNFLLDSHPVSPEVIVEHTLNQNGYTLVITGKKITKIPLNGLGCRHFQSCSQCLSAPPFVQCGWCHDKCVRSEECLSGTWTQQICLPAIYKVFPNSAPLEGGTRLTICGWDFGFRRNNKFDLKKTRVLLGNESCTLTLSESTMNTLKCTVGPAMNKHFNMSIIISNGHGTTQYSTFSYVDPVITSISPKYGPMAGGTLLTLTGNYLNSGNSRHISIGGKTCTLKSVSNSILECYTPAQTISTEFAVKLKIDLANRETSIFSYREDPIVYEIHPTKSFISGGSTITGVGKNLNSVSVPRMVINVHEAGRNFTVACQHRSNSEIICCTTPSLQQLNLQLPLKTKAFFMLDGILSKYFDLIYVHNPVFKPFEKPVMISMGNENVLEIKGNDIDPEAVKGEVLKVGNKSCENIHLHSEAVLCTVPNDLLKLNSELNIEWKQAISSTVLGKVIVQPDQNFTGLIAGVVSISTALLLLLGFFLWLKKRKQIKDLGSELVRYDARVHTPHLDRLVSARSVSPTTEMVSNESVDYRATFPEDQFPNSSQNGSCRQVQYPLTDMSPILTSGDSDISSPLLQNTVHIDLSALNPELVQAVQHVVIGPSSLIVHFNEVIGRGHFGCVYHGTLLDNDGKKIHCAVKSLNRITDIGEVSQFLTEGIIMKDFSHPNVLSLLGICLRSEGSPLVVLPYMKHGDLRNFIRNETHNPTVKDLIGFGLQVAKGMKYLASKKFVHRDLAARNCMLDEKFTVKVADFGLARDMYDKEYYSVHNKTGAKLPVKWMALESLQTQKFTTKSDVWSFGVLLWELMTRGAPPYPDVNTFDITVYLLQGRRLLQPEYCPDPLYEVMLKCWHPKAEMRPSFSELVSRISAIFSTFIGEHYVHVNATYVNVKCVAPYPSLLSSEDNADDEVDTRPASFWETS
UniProt O96017, whole entry, species assumed: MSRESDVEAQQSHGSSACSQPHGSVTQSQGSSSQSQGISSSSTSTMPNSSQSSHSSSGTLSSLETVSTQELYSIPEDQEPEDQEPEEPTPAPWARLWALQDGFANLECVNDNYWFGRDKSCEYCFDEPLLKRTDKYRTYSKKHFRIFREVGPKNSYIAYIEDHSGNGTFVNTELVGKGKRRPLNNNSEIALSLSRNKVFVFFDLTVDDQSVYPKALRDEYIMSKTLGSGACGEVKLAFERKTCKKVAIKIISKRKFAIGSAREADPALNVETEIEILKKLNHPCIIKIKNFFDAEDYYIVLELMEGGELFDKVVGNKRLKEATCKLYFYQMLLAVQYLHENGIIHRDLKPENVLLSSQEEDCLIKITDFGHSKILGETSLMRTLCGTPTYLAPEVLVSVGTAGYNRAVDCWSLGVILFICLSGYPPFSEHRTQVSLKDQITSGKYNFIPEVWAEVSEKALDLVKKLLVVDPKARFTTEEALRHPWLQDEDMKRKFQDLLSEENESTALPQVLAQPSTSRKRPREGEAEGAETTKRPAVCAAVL

How the values were obtained:
c-Met = c-Met (Homo sapiens, UniProt P08581); conditions: cited from earlier work
Chk2 = Chk2 (Homo sapiens, UniProt O96017); conditions: cited from earlier work

CCS(=O)(=O)N1CC(CC#N)(n2cc(-c3ncnc4[nH]ccc34)cn2)C1 [Baricitinib]
inhibition to c-Met (c-Met): no inhibition
inhibition to Chk2 (Chk2): no inhibition
